# Reference: article PMC3351392
# Protein sequences, listed by entry. Tags and fused reporters are not part of them.
# UniProt Q03173: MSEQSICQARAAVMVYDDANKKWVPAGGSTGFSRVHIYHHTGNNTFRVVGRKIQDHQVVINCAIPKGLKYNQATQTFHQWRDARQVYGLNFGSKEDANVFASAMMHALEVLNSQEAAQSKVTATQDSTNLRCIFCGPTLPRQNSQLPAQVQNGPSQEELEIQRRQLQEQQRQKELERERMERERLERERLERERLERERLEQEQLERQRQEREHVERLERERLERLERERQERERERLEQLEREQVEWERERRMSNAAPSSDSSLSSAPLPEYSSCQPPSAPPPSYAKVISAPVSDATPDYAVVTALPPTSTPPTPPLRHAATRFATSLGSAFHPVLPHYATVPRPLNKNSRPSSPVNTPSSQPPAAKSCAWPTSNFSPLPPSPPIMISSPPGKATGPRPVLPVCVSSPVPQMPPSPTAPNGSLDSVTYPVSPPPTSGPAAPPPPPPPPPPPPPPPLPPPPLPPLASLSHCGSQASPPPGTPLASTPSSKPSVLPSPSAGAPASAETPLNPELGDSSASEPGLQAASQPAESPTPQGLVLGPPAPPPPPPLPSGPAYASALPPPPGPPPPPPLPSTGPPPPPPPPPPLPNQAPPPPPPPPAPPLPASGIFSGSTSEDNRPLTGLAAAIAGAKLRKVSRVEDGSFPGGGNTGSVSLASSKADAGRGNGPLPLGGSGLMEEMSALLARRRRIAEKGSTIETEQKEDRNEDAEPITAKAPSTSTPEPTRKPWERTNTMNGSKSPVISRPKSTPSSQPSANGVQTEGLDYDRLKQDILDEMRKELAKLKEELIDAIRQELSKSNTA
# No constants are given. Whether binding was seen depends on the method and setting. Binding seen in cells or lysates may run through a third protein. Some entries that bind do so weakly or less than the wild type. For some assays here: Sequences can lack the tags named with a protein.
# T1: WAVE1, endogenous in brain extract (rat (endogenous in rat brain extract, legend) or mouse (endogenous in mouse brain extracts, text)) (UniProt Q8R5H6)
# T1 sequence: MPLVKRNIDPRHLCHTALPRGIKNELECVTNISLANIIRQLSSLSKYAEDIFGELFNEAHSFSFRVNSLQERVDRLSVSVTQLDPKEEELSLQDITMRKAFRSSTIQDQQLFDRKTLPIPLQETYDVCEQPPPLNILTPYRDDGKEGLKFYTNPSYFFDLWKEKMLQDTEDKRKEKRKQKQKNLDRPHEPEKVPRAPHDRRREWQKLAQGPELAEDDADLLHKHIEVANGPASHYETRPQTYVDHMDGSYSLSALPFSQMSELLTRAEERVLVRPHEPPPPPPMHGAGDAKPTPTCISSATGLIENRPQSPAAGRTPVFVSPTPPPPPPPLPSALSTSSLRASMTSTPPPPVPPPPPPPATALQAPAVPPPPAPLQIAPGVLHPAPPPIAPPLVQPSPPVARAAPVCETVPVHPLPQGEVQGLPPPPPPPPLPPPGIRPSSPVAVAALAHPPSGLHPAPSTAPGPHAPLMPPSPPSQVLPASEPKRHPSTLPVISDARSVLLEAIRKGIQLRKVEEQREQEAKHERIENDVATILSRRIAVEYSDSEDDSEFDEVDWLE
# B1: Myc-Amph (Amphiphysin, full-length) (protein, UniProt P49418 1-695)
# chain: MADIKTGIFAKNVQKRLNRAQEKVLQKLGKADETKDEQFEEYVQNFKRQEAEGTRLQRELRGYLAAIKGMQEASMKLTESLHEVYEPDWYGREDVKMVGEKCDVLWEDFHQKLVDGSLLTLDTYLGQFPDIKNRIAKRSRKLVDYDSARHHLEALQSSKRKDESRISKAEEEFQKAQKVFEEFNVDLQEELPSLWSRRVGFYVNTFKNVSSLEAKFHKEIAVLCHKLYEVMTKLGDQHADKAFTIQGAPSDSGPLRIAKTPSPPEEPSPLPSPTASPNHTLAPASPAPARPRSPSQTRKGPPVPPLPKVTPTKELQQENIISFFEDNFVPEISVTTPSQNEVPEVKKEETLLDLDFDPFKPEVTPAGSAGVTHSPMSQTLPWDLWTTSTDLVQPASGGSFNGFTQPQDTSLFTMQTDQSMICNLAESEQAPPTEPKAEEPLAAVTPAVGLDLGMDTRAEEPVEEAVIIPGADADAAVGTLVSAAEGAPGEEAEAEKATVPAGEGVSLEEAKIGTETTEGAESAQPEAEELEATVPQEKVIPSVVIEPASNHEEEGENEITIGAEPKETTEDAAPPGPTSETPELATEQKPIQDPQPTPSAPAMGAADQLASAREASQELPPGFLYKVETLHDFEAANSDELTLQRGDVVLVVPSDSEADQDAGWLVGVKESDWLQYRDLATYKGLFPENFTRRLD
# Columns and labels:
# [1] = target: T1, WAVE1, endogenous in brain extract (rat (endogenous in rat brain extract, legend) or mouse (endogenous in mouse brain extracts, text)); experiment: co-IP; reciprocal co-immunoprecipitation of endogenous proteins from brain extract, Western blotting
# [2] = target: WAVE1, full-length, co-expressed for the co-immunoprecipitations with Amph and Gas7 (Figure 4E-F) (UniProt Q92558); experiment: co-IP; co-expression of tagged proteins in cells, immunoprecipitation from pre-cleared lysates, Western blotting
molecule,measurement,setting,value
"Enah, endogenous in brain extract (from UniProt Q03173 1-802)",binding,[1],binds
B1,binding,[2],binds
